Data reported in PubChem BioAssay AID493085 (Broad Institute, 2011).
Hit rate of the full screen: of about 2,400 compounds, about 360 (15%) were called active. The shares of active, inactive and inconclusive entries below differ from those in the screen.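 How the source made its calls: active means falling-signal curve with half-maximal concentration at or below ten times the top tested dose; inconclusive means flat fit at 30 to 70% inhibition, or poor fit; inactive means signal rise, flat within 30%, or potency beyond limit.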

Test: dox-induced RFP signal loss in R4-3T3 cells – cell-based, NIH3T3 R4, HSE-GFP and Tet-On RFP, cherry-pick, set 3, dose response (AID 493085);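 further: cells heat shocked 2 h at 42 °C with doxycycline to induce reporters; 0% = neutral control wells and -100% = didemnin B control at 400 nM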
Conditions: NIH3T3 R4 HSE-GFP/Tet-RFP reporter, fluorescence, 48 h; at 19.5 µM (top of the series)

Row | SMILES | activity change, negative = inhibition
1 | CC(=O)[C@]1(O)Cc2c(O)c3c(c(O)c2[C@@H](O[C@H]2C[C@H](N)[C@H](O)[C@H](C)O2)C1)C(=O)c1ccccc1C3=O | inconclusive: 184%
2 | O=C(Nc1ccccc1Cl)/C(Cl)=C(\Cl)S(=O)c1ccccc1 (stereo not drawn) | inconclusive: -53.7%
3 | O=C(Cn1nc(-c2ccc(Cl)cc2)ccc1=O)NCC1CCCO1 (stereo not drawn) | inactive: -3.51%
4 | COc1cc(/C=C2\COC/C(=C\c3cc(OC)c(OC)c(OC)c3)C2=O)cc(OC)c1OC | inconclusive: -51.3%
5 | CCOc1ccc(NC(=O)CN(C)C(=O)c2ccc(N3CCCC3)c([N+](=O)[O-])c2)cc1OCC | inconclusive: -0.715%
6 | Cn1ncc([N+](=O)[O-])c1C(=O)Nc1ccccc1Cl | inactive: -12.2%
7 | CC(C)(C)n1nnnc1CN1CCC(NC(=O)NC2CCCCC2)CC1 | inconclusive: 28.8%
8 | CC1(C)CC(=O)C2=C(C1)N(c1ccc(F)cc1)C(=O)CC2c1ccccc1 (stereo not drawn) | inactive: -4.86%
9 | O=C(NCCCN1CCC(Cc2ccccc2)CC1)C1CC(=O)N(C2CCCC2)C1 (stereo not drawn) | inconclusive: -2.62%
10 | CC(=O)Cn1ncc(Br)c(Br)c1=O | inconclusive: -42%
11 | CN(C)c1ccc(C(=S)Nc2ccccc2)cc1 | inactive: 0.39%
12 | COc1ccc(N2CCN(c3oc(Cc4ccccc4)nc3C#N)CC2)cc1 | inconclusive: -7.36%
13 | CC1=NN(c2ccccc2)C(=O)C1N=Nc1ccc(S(N)(=O)=O)cc1 (stereo not drawn) | inconclusive: 2.73%
14 | Cc1ccc(-c2nc(NC(=O)c3nn(C)cc3[N+](=O)[O-])sc2C)cc1C | inconclusive: 170%
15 | CC(C)CC(=O)NC(NC(=O)CC(C)C)c1cccc([N+](=O)[O-])c1 | inconclusive: -22.3%
16 | COc1ccc(NC2=Nc3ccccc3N3C2=Nc2c(c(C)nn2-c2ccc(C)cc2)C3c2cccnc2)cc1 (stereo not drawn) | inconclusive: 57.7%
17 | COc1ccc(-c2nc(CNS(=O)(=O)c3ccc(OC)c(OC)c3)cs2)cc1 | inactive: -23.9%
18 | CCN1C(=O)[C@H]2[C@@H](c3ccc(C)cc3)N3C(=O)N(c4ccc(C)cc4)C(=O)[C@@]3(C)[C@H]2C1=O | inconclusive: 14.5%
19 | CC(C)=C1C2CCC1C1C(=O)N(c3ccc(C)c(C)c3)C(=O)C21 (stereo not drawn) | inconclusive: -14.2%
20 | COc1cc([C@@H]2c3cc4c(cc3[C@H](O)[C@H]3COC(=O)[C@H]23)OCO4)cc(OC)c1OC | inconclusive: 21.5%
21 | OC1OC[C@@H](O)[C@H](O)[C@H]1O (stereo partly drawn) | inconclusive: -8.54%

Row | SMILES | activity change, negative = inhibition
22 | O=[N+]([O-])c1ccc(N=Nc2ncc[nH]2)cc1 | inconclusive: 92.2%
23 | COc1ccc(C(NC(=O)c2ccc(=O)[nH]c2)C(=O)Nc2ccc(C(C)C)cc2)cc1 (stereo not drawn) | inconclusive: 59.3%
24 | CCOC(=O)c1c(C)n(C)c2ccc(OC)c(NC(=O)CN3CCSCC3)c12 | inactive: 9.61%
25 | Cc1cccc(CN2CCNC2=O)c1 | inconclusive: 21.7%
26 | COc1cccc(-n2nnc3c(=O)n(Cc4ccccc4Cl)cnc32)c1 | inactive: -9.31%
27 | CC(C)(C)C(=O)Nc1ccc(-c2cc3cc(Cl)ccc3o2)cc1 | inactive: -1.75%
28 | Cc1ccc(N(Cc2cc3ccc(C)cc3[nH]c2=O)C(=O)c2cccs2)cc1 | inactive: -2.97%
29 | Cc1ccc(-n2nc3c(=O)n(CCCC(=O)N4CCC(C(N)=O)CC4)nc(C)c3c2C)cc1 | inactive: -0.762%
30 | Cn1ccnc1Sc1cc(NCCCO)c([N+](=O)[O-])c2nonc12 | inactive: -89.6%
31 | Cc1cc([N+](=O)[O-])nn1CC(=O)NCc1nc2ccccc2[nH]1 | inconclusive: -9.31%
32 | CCOc1ccc(N=Nc2c(N)[nH][nH]c2=O)cc1 | inconclusive: 3.9%
33 | O=C(CN1CCN(Cc2ccccc2)CC1)N/N=C\C=C/c1ccco1 | inconclusive: 7.92%
34 | COc1cccc(CC(=O)N[C@@H](CCSC)c2nc3ccccc3[nH]2)c1 | inactive: -6.15%
35 | Cc1cc(C)c(N=C2SCC(=O)N2Cc2ccco2)c(C)c1 | inconclusive: 13.7%
36 | C(=N\Nc1nc2ccccc2s1)/c1ccccn1 | inconclusive: 9.96%
37 | COC(=O)CCS(=O)(=O)c1nc(-c2ccccc2)cc(C(F)(F)F)n1 | inconclusive: -76.2%
38 | CCc1ccc(C(=O)COC(=O)CNC(=O)c2cccs2)cc1 | inconclusive: 5.74%
39 | O=C(COc1ccccc1C(=O)O)Nc1ccc(SC(F)F)cc1 | inactive: -6.52%
40 | c1ccc(COc2cccc(CN3CCN(c4ccccn4)CC3)c2)cc1 | inconclusive: -14.7%
41 | CCN(c1ccccc1)S(=O)(=O)c1cnc[nH]1 | inconclusive: 21.3%
42 | Cc1cc(OCC(=O)NCCc2ccc(S(N)(=O)=O)cc2)c2c(C)cc(=O)oc2c1 | inactive: -1.48%

Sorted by molar mass (falling): some entries from above
Row | SMILES | activity change, negative = inhibition
23 | COc1ccc(C(NC(=O)c2ccc(=O)[nH]c2)C(=O)Nc2ccc(C(C)C)cc2)cc1 (stereo not drawn) | inconclusive: 59.3%
34 | COc1cccc(CC(=O)N[C@@H](CCSC)c2nc3ccccc3[nH]2)c1 | inactive: -6.15%
26 | COc1cccc(-n2nnc3c(=O)n(Cc4ccccc4Cl)cnc32)c1 | inactive: -9.31%
33 | O=C(CN1CCN(Cc2ccccc2)CC1)N/N=C\C=C/c1ccco1 | inconclusive: 7.92%
30 | Cn1ccnc1Sc1cc(NCCCO)c([N+](=O)[O-])c2nonc12 | inactive: -89.6%
36 | C(=N\Nc1nc2ccccc2s1)/c1ccccn1 | inconclusive: 9.96%

(listing goes on)

Row | SMILES | activity change, negative = inhibition
43 | O=C(C1CCC(CNS(=O)(=O)c2cccc3cccnc23)CC1)N1CCCC1 (stereo not drawn) | inactive: 18.4%
44 | CCOC(=O)c1c(-c2ccccc2)n(C)c2ccc(O)cc12 | inconclusive: -21.2%
45 | O=C(COC(=O)C1C2CC3OC(=O)C1C3C2)Nc1cccc(Cl)c1 (stereo not drawn) | inconclusive: 49.6%
46 | O=c1o[nH]c(-c2ccccc2)c1-c1ccccc1 | inconclusive: 5.38%
47 | CC1CCCN(c2ncnc3c2cnn3-c2ccc(Cl)cc2)C1 (stereo not drawn) | inactive: -12.2%
48 | Cc1c(C(=O)NCc2ccc3c(c2)OCO3)sc2nc(-c3ccccc3)cn12 | inactive: -10%
49 | CNC(=O)COC(=O)c1ccccc1C(=O)c1ccc(Cl)c([N+](=O)[O-])c1 | inactive: 5.21%
50 | Cc1nnc(N2C(=O)c3cccc4cccc(c34)C2=O)s1 | inactive: -1.34%
51 | O=C(CNC(=O)c1cccnc1)N/N=C/c1cc(Br)c(O)c(Br)c1 | inconclusive: 1.9%
52 | Cc1cc(C(=O)COC(=O)C2CC2)c(C)n1-c1ccc(F)cc1 | inactive: 4.63%
53 | CCOc1ccc(N(CC(=O)NC2CCCCC2)C(=O)CCC(=O)Nc2nc(C)cs2)cc1 | inconclusive: -1.1%
54 | COc1cc(CCCN2CCNC[C@@H]2Cc2ccc(O)cc2)cc(OC)c1OC | inactive: 15.6%
55 | Cc1ccccc1OCC(=O)OCC(=O)c1ccc(-c2ccccc2)cc1 | inactive: -2.21%
56 | O=S(=O)(C/C(=C/CO)S(=O)(=O)c1ccccc1)c1ccccc1 | inconclusive: -40%
57 | COc1ccc2oc(=O)c(N3C(=O)c4ccccc4C3=O)cc2c1 | inactive: -15.4%
58 | CC(C)c1ccc(/C=N/Nc2ccc(C(=O)O)cc2)cc1 | inactive: 10.4%
59 | Cc1cc(NC(=O)c2ccc3nc(C)sc3c2)no1 | inconclusive: 4.46%
60 | CC(NO)/C(=N\O)c1cccs1 (stereo not drawn) | inconclusive: 18.8%
61 | CCOc1cc(C#N)c(NC(=O)c2cccnc2Cl)cc1OCC | inconclusive: -7.83%
62 | CC(C)(C)C(=O)N1CCN(CCN2C(=O)c3cccc4cccc(c34)C2=O)CC1 | inconclusive: 22.5%
63 | CCc1ccc(OC(C)C(=O)N(Cc2ccco2)C2CCS(=O)(=O)C2)cc1 (stereo not drawn) | inactive: -7.01%

Row | SMILES | activity change, negative = inhibition
64 | CCCCC(=O)Nc1cccc(NC(=O)c2cccc(Br)c2)c1 | inactive: 8.02%
65 | COc1ccc(OC)c(NC(=S)NCc2cccnc2)c1 | inactive: -11%
66 | CN(C(=O)COC(=O)c1nc(Cl)c(Cl)c(Cl)c1Cl)C1CCS(=O)(=O)C1 (stereo not drawn) | inconclusive: 14.8%
67 | COc1cc(/C=N/NC(=O)c2cncc(Br)c2)cc([N+](=O)[O-])c1O | inconclusive: 30%
68 | CC(O/N=C\c1ccccc1O)C(=O)Nc1ccccc1C(=O)N1CCOCC1 (stereo not drawn) | inconclusive: 4.38%
69 | CCCC(=O)NC(c1ccc(C(C)C)cc1)c1ccc2cccnc2c1O (stereo not drawn) | inconclusive: 64.4%
70 | CC1(C)Cc2c(C#N)c(NCCO)nc(-c3ccco3)c2CO1 | inconclusive: 31.3%
71 | Cc1ccc(S(=O)(=O)N2CCN(CCNC(=O)C(=O)NCc3ccccc3)CC2)cc1 | inconclusive: 11.7%
72 | CC(=O)Oc1ccc(OC(C)=O)c(SCCCCCCl)c1 | inconclusive: -73.9%
73 | N#Cc1c(SCC(=O)Nc2nccs2)nc2c(c1-c1ccco1)CCCC2 | inconclusive: 31.6%
74 | COC(=O)c1nn(-c2cccc(C(F)(F)F)c2)c(=O)cc1Sc1ccccn1 | inactive: -0.462%
75 | Cc1cc(C(=O)NC2CCCN(Cc3ccc(Cl)cc3)C2)n(C)n1 (stereo not drawn) | inactive: 7.47%
76 | CCc1ccccc1-n1c(SCC(=O)Nc2ccc3c(c2)OCCO3)nc2[nH]ncc2c1=O | inactive: -7.25%
77 | O=C1C=CC(O)(c2cc(=O)c3c(O)cc(O)cc3o2)C=C1 | inconclusive: -87.7%
78 | CCOc1ccc(OCc2cccc(C(=O)O)c2)cc1 | inactive: -1.67%
79 | CN1CCN(CC(=O)n2c3c(c4ccccc42)CCCC3)CC1 | inconclusive: 2.83%
80 | CC(C)CN=C(NS(=O)(=O)c1ccccc1)C(Cl)(Cl)Cl | inconclusive: -90%
81 | CC(C)OCCCn1c(NN)nc2ccccc2c1=O | inconclusive: -8.01%
82 | CCOC(=O)c1cccc(NC(=O)CCS(=O)(=O)c2ccc(Br)s2)c1 | inactive: -1.87%
83 | CCOC(=O)/C(=C\c1ccc(OC(F)F)cc1)C1=Nn2c(nnc2-c2ccc(Cl)cc2)SC1 | inconclusive: -63.4%
